Data taken from the supplement of paper PMC10849652.
The other results are listed elsewhere or left out.

Chains of the proteins cited; added tags and fusions are not shown. Lines headed by an entry give the natural chain unless they say otherwise; changes in a name come on top.
UniProt Q10567: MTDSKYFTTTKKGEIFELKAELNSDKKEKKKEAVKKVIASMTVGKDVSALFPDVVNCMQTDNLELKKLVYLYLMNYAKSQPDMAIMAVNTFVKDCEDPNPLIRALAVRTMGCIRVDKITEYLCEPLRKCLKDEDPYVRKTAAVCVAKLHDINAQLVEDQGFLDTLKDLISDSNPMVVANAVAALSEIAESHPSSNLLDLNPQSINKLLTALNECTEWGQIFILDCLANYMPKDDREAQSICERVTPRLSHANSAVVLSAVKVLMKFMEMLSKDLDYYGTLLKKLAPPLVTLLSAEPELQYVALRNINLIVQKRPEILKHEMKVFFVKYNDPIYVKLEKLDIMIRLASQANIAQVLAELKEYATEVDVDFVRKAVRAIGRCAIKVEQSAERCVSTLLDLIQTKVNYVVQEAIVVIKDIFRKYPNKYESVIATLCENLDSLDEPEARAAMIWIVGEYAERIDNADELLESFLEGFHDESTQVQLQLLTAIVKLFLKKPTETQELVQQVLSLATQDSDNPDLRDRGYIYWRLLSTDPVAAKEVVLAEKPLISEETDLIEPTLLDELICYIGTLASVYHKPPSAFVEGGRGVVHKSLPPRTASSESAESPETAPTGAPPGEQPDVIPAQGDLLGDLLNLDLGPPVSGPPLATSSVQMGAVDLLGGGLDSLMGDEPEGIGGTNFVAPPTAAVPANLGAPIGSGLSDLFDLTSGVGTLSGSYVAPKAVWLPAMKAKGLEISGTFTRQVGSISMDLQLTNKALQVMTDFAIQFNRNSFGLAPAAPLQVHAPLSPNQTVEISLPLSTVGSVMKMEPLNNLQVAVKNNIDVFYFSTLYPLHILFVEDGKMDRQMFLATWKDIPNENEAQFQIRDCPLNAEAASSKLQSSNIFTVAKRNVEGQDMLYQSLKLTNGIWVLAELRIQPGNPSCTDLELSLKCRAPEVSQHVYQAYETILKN
UniProt Q9H8Y5: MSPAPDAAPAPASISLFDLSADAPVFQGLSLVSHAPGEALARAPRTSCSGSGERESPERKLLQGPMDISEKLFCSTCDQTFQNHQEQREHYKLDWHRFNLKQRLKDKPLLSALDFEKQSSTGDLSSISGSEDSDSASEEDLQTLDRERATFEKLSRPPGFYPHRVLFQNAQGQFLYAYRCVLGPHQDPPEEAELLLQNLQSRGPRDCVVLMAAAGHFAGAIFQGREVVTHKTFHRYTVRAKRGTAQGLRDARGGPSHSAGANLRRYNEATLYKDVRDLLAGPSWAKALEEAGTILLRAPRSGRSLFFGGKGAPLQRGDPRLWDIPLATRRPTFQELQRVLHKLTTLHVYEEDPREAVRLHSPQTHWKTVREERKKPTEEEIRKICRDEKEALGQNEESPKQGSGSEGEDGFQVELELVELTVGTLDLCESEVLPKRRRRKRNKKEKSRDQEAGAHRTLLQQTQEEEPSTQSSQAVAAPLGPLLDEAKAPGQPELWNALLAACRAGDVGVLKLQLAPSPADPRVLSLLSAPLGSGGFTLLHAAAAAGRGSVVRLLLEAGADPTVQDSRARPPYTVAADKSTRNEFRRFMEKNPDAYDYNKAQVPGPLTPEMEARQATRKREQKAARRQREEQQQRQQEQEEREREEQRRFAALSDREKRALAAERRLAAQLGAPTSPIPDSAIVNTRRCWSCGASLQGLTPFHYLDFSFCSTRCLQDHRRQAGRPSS
UniProt P53367: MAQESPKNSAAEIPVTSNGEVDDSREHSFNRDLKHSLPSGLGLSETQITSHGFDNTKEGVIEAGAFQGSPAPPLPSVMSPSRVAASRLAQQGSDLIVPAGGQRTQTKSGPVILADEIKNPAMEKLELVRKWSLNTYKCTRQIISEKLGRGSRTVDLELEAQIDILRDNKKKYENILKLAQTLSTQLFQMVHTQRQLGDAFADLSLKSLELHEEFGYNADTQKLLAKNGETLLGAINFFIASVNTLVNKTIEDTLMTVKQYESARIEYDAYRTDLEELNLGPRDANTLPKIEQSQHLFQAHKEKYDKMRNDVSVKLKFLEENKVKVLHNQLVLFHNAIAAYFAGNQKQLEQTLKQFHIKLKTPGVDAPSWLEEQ
UniProt P53680: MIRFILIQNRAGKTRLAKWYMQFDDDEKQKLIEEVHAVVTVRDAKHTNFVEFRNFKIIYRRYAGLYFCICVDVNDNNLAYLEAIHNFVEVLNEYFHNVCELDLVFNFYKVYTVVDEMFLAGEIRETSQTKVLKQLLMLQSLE
UniProt Q8IZ07: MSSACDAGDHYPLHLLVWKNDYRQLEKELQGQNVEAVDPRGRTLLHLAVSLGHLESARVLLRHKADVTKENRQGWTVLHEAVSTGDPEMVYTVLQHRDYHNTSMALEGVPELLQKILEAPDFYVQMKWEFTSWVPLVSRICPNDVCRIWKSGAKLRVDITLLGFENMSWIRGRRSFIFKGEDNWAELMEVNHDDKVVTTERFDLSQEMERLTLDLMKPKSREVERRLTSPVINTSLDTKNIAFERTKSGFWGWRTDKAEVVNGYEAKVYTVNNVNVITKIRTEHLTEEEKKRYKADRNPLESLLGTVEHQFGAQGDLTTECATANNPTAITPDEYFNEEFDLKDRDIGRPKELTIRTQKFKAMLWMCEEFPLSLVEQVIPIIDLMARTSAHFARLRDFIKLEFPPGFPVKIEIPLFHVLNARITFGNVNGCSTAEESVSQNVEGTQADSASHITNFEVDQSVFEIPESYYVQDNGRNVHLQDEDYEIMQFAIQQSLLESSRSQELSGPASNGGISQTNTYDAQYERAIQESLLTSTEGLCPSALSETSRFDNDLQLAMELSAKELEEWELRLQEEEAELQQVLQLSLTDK
UniProt P08133: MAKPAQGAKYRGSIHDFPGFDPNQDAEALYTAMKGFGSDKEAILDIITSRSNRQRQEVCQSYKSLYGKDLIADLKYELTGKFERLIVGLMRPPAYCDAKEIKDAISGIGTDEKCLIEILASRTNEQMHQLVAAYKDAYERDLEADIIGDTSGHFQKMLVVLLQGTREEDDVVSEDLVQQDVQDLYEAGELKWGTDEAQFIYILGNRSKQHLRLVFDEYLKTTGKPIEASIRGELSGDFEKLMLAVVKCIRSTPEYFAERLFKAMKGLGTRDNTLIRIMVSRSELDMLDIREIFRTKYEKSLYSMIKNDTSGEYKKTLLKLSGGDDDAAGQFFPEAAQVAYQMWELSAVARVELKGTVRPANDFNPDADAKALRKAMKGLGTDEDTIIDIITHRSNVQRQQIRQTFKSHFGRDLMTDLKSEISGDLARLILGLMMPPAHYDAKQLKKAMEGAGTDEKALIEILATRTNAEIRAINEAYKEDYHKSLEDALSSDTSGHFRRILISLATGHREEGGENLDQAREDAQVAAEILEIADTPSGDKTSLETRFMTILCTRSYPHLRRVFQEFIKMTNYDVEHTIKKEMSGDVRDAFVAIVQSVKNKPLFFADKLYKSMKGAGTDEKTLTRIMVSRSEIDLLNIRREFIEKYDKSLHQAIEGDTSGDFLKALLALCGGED
UniProt P61966: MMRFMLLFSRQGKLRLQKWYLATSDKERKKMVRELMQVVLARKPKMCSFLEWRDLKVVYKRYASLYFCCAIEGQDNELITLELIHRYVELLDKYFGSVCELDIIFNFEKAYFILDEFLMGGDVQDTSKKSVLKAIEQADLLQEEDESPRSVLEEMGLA
UniProt Q13795: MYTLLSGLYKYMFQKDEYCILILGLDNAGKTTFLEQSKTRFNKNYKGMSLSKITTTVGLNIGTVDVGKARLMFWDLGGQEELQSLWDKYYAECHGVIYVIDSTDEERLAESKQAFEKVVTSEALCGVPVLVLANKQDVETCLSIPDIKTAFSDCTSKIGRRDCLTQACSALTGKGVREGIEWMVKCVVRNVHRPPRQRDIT
UniProt P61204: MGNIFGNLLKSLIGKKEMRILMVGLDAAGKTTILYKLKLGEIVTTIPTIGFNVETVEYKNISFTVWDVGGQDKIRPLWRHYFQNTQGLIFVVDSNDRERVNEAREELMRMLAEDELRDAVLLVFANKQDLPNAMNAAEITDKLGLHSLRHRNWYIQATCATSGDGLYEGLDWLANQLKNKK
UniProt P07741: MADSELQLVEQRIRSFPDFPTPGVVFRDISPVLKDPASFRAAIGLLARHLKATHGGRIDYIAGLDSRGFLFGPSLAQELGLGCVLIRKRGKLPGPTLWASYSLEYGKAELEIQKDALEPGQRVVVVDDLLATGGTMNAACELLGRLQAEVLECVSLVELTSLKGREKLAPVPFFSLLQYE
UniProt P09525: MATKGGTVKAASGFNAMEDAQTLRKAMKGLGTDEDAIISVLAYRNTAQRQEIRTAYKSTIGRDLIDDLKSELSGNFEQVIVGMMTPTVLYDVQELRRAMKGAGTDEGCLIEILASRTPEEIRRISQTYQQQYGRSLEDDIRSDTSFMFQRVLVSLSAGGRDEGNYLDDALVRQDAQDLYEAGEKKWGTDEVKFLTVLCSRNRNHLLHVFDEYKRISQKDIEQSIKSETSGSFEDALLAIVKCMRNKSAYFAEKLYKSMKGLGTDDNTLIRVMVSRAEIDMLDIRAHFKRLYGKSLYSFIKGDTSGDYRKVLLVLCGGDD
UniProt Q9UPM8: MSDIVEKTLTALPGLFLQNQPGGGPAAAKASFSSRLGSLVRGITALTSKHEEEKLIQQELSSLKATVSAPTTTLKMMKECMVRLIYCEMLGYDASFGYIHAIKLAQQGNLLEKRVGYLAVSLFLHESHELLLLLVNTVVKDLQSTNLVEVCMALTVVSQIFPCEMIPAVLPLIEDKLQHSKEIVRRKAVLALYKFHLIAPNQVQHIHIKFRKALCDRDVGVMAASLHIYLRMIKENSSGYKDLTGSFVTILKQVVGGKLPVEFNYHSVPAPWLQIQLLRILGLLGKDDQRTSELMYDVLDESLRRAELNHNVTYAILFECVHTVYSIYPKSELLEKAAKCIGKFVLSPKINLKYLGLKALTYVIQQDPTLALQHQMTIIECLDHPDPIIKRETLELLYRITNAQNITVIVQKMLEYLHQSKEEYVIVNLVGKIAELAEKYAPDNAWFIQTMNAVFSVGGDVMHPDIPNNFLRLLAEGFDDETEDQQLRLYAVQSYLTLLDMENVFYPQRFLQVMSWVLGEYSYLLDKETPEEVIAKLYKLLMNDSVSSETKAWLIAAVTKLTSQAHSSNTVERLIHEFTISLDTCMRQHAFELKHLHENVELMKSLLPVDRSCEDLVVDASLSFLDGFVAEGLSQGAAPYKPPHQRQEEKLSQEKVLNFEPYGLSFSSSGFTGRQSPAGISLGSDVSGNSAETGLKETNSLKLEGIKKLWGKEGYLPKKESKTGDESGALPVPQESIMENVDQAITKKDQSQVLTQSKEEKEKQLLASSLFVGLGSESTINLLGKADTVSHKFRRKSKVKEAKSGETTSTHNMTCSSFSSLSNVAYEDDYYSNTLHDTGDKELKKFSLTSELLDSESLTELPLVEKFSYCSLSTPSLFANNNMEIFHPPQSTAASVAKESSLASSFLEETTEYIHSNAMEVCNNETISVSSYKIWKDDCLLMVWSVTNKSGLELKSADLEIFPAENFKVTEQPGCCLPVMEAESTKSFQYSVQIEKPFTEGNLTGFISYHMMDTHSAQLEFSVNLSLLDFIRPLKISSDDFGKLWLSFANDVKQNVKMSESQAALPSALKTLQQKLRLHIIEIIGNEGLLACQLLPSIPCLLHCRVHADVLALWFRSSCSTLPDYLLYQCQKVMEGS
UniProt P52566: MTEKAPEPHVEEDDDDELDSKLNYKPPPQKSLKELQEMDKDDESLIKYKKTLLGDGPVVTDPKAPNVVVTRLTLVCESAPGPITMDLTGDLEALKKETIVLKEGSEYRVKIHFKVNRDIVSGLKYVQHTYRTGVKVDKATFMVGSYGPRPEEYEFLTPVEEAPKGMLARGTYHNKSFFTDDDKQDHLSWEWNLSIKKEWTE
UniProt Q9UKG1: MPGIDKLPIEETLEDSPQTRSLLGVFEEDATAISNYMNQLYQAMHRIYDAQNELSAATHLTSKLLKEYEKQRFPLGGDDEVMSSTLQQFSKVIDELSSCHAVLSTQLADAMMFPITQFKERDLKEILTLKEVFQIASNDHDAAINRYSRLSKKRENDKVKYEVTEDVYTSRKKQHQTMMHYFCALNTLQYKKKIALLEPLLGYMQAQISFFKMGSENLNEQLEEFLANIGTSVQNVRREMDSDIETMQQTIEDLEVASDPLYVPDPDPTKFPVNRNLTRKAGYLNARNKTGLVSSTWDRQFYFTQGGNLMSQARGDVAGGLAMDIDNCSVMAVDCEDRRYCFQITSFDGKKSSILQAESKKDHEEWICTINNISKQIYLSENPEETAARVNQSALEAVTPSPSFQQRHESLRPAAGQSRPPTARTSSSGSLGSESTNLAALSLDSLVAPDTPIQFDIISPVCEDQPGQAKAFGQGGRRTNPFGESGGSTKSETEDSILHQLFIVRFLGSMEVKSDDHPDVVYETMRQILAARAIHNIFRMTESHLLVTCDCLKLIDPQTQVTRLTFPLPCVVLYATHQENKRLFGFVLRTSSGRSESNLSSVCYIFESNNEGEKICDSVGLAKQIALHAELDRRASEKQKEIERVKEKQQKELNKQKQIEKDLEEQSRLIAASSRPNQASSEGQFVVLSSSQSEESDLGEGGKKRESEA

Legend:
Assay in all cases: log2 fold change, soluble protein after heating vs DMSO (PISA); higher = thermal stabilisation; K562 cells, 10 uM, 30 min; active = over 0.2 and 3.5 SD of the protein, either way, in both replicates (recomputed)
[1] = compound: NC(=O)Nc1cc(-c2cccc(F)c2)sc1C(=O)N[C@H]1CCCNC1
Outline: (§1)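 For each measurement, 10 μM compound was applied for 30 min to K562 cells at 2×10^6 cells/mL. Aliquots were heated for 3 min across 48°C-58°C, pooled, and extracted in PBS with 0.5% NP-40 at 4°C; the supernatant after 21,000xg for 90 min was soluble protein. This was quantified by TMTpro 16plex LC-MS/MS with channel sums equalised, and thermal stability was reported relative to control samples from duplicates, on a log2 fold-change scale.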

[2] = compound: NC(=O)c1cnc(N[C@@H]2CCCC[C@@H]2N)nc1Nc1cccc(-n2nccn2)c1
Outline: as §1

[3] = compound: NC1(c2ccc(-c3nc4ccn5c(=O)[nH]nc5c4cc3-c3ccccc3)cc2)CCC1
Outline: as §1

[4] = compound: NCC(=O)Nc1ccc(-n2nc(C(F)(F)F)cc2-c2ccc3c(ccc4ccccc43)c2)cc1
Outline: as §1

entinostat = compound: Nc1ccccc1NC(=O)c1ccc(CNC(=O)OCc2cccnc2)cc1 [entinostat]
Outline: as §1

vorinostat = compound: O=C(CCCCCCC(=O)Nc1ccccc1)NO [vorinostat]
Outline: as §1

citarinostat = compound: O=C(CCCCCCNC(=O)c1cnc(N(c2ccccc2)c2ccccc2Cl)nc1)NO [citarinostat]
Outline: as §1

silmitasertib = compound: O=C(O)c1ccc2c(c1)nc(Nc1cccc(Cl)c1)c1ccncc12 [silmitasertib]
Outline: as §1

[5] = compound: O=C1NC(=O)C(c2cnc3ccccn23)=C1c1cn2c3c(cc(F)cc13)CN(C(=O)N1CCCCC1)CC2
Outline: as §1

[6] = compound: c1cc(OCCN2CCCCC2)cc(-c2n[nH]c3ccc(-c4nnc[nH]4)cc23)c1
Outline: as §1

Target | log2 fold change [1] | log2 fold change [2] | log2 fold change [3] | log2 fold change [4] | log2 fold change (entinostat) | log2 fold change (vorinostat) | log2 fold change (citarinostat) | log2 fold change (silmitasertib) | log2 fold change [5] | log2 fold change [6]
ANKRD28 (UniProt O15084) | inactive: -0.06 | inactive: -0.058 | inactive: -0.083 | inactive: -0.003 | inactive: 0.01 | inactive: 0.043 | inactive: 0.06 | inactive: 0.02 | inactive: -0.009 | inactive: -0.03
ARFGEF2 (UniProt Q9Y6D5) | inactive: -0.126 | inactive: 0.083 | inactive: -0.078 | inactive: 0.007 | inactive: 0.024 | inactive: 0.066 | inactive: -0.014 | inactive: 0.004 | inactive: -0.057 | inactive: 0.046
ANK1 isoform 14 (UniProt P16157) | inactive: 0.08 | inactive: -0.024 | inactive: 0.134 | inactive: 0.048 | inactive: 0.059 | inactive: 0.108 | inactive: 0.054 | inactive: 0.18 | inactive: 0.27 | inactive: -0.094
AP1B1 (UniProt Q10567) | inactive: -0.008 | inactive: 0.036 | inactive: -0.048 | inactive: 0.019 | inactive: 0.013 | inactive: 0.016 | inactive: 0.016 | inactive: 0.031 | inactive: 0.015 | inactive: -0.028
ANKZF1 (UniProt Q9H8Y5) | inactive: -0.008 | inactive: 0.026 | inactive: 0.072 | inactive: -0.001 | inactive: 0.03 | inactive: 0.054 | inactive: -0.006 | inactive: -0.051 | inactive: 0.215 | inactive: -0.065
ARF6 (UniProt P62330) | inactive: -0.071 | inactive: 0.056 | inactive: -0.07 | inactive: -0.093 | inactive: -0.062 | inactive: 0.025 | inactive: 0.026 | inactive: 0.047 | inactive: -0.009 | inactive: -0.052
ARFIP1 (UniProt P53367) | inactive: 0.116 | inactive: -0.002 | inactive: -0.162 | inactive: 0.062 | inactive: 0.079 | inactive: 0.031 | inactive: 0.121 | inactive: -0.011 | inactive: -0.042 | inactive: -0.048
AP2S1 (UniProt P53680) | active: -0.386 | inactive: 0.102 | inactive: -0.009 | inactive: -0.039 | inactive: -0.066 | inactive: 0.108 | inactive: -0.077 | inactive: 0.011 | active: -0.314 | inactive: -0.217
ANKRD13A (UniProt Q8IZ07) | inactive: 0.052 | inactive: -0.045 | inactive: -0.015 | inactive: 0.006 | inactive: -0.011 | inactive: 0.026 | inactive: 0.015 | inactive: 0.024 | inactive: -0.065 | inactive: -0.093
APLP2 (UniProt Q06481) | inactive: -0.13 | inactive: -0.021 | inactive: 0.036 | inactive: 0.054 | inactive: -0.063 | inactive: -0.035 | inactive: 0.02 | inactive: 0 | inactive: 0.074 | inactive: 0.046
ANXA6 (UniProt P08133) | inactive: -0.048 | inactive: -0.084 | inactive: -0.18 | inactive: -0.125 | inactive: 0.007 | inactive: 0.005 | inactive: 0.029 | inactive: 0.061 | inactive: -0.005 | inactive: -0.114
ARHGEF2 (UniProt Q92974) | inactive: 0.04 | inactive: 0.019 | inactive: 0.192 | inactive: 0.063 | inactive: 0.028 | inactive: 0.088 | inactive: -0.077 | inactive: 0.203 | inactive: 0.395 | inactive: -0.085
AP1S1 (UniProt P61966) | inactive: -0.04 | inactive: -0.111 | inactive: -0.063 | inactive: -0.051 | inactive: 0.017 | inactive: 0.042 | inactive: -0.07 | inactive: 0.088 | inactive: 0.045 | inactive: -0.109
ARHGDIA (UniProt P52565) | inactive: -0.035 | inactive: 0.065 | inactive: -0.046 | inactive: -0.007 | inactive: -0.016 | inactive: -0.03 | inactive: 0.014 | inactive: -0.02 | inactive: -0.087 | inactive: -0.015
ARFRP1 (UniProt Q13795) | inactive: 0.167 | inactive: 0.108 | inactive: -0.173 | inactive: 0.067 | inactive: 0.117 | inactive: 0.054 | inactive: 0.025 | inactive: 0.013 | inactive: -0.085 | inactive: 0.074
APOC1 (UniProt P02654) | inactive: 0.01 | inactive: -0.001 | inactive: -0.036 | inactive: 0.063 | inactive: -0.006 | inactive: -0.221 | inactive: 0.024 | inactive: -0.002 | inactive: -0.078 | inactive: -0.057
AP3B1 (UniProt O00203) | inactive: -0.046 | inactive: -0.012 | inactive: -0.066 | inactive: -0.034 | inactive: 0.015 | inactive: 0.032 | inactive: 0.064 | inactive: 0.003 | inactive: -0.025 | inactive: -0.04
ARF3 (UniProt P61204) | inactive: 0.02 | inactive: -0.005 | inactive: -0.024 | inactive: 0.009 | inactive: -0.032 | inactive: -0.009 | inactive: 0.039 | inactive: 0.007 | inactive: -0.003 | inactive: -0.029
AP3M1 (UniProt Q9Y2T2) | inactive: -0.012 | inactive: -0.07 | inactive: -0.047 | inactive: -0.019 | inactive: 0.037 | inactive: -0.003 | inactive: 0.068 | inactive: 0.02 | inactive: -0.029 | inactive: -0.004
APRT (UniProt P07741) | inactive: -0.004 | inactive: -0.038 | inactive: 0.024 | inactive: -0.015 | inactive: 0.001 | inactive: -0.025 | inactive: 0.045 | inactive: -0.019 | inactive: -0.057 | inactive: -0.017
ANTXR2 isoform 4 (UniProt P58335) | inactive: -0.105 | inactive: 0.014 | inactive: 0.029 | inactive: 0.021 | inactive: -0.052 | inactive: -0.013 | inactive: 0.04 | inactive: 0.032 | inactive: -0.027 | inactive: -0.068
ANKRD49 (UniProt Q8WVL7) | inactive: 0.025 | inactive: -0.011 | inactive: -0.002 | inactive: -0.019 | inactive: 0.037 | inactive: 0.084 | inactive: 0.041 | inactive: 0.002 | inactive: 0.013 | inactive: -0.014
ANXA4 (UniProt P09525) | inactive: -0.041 | inactive: -0.039 | inactive: -0.095 | inactive: -0.035 | inactive: 0.06 | inactive: -0.011 | inactive: 0.052 | inactive: 0.016 | inactive: -0.052 | inactive: 0.118
AP2B1 isoform 2 (UniProt P63010) | active: -0.225 | inactive: 0.01 | inactive: 0.037 | inactive: 0.002 | inactive: 0 | inactive: 0.01 | inactive: 0.019 | inactive: 0.02 | inactive: -0.202 | inactive: -0.182
APOOL (UniProt Q6UXV4) | inactive: 0.022 | inactive: -0.005 | inactive: 0.028 | inactive: -0.012 | inactive: -0.023 | inactive: 0.026 | inactive: 0.04 | inactive: 0.037 | inactive: -0.017 | inactive: -0.038
AP4E1 (UniProt Q9UPM8) | inactive: 0.063 | inactive: -0.015 | inactive: 0.016 | inactive: -0.036 | inactive: -0.056 | inactive: 0.132 |  | inactive: 0.025 | inactive: 0.049 | 
ARHGDIB (UniProt P52566) | inactive: -0.019 | inactive: -0.083 | inactive: -0.083 | inactive: -0.073 | inactive: -0.003 | inactive: -0.021 | inactive: 0.023 | inactive: 0.019 | inactive: -0.051 | inactive: 0.025
ARF5 (UniProt P84085) | inactive: -0.037 | inactive: 0.01 | inactive: -0.018 | inactive: 0.009 | inactive: 0.003 | inactive: -0.006 | inactive: 0.006 | inactive: 0.011 | inactive: -0.008 | inactive: -0.051
APPL1 (UniProt Q9UKG1) | inactive: -0.032 | inactive: -0.012 | inactive: -0.023 | inactive: -0.043 | inactive: -0.053 | inactive: 0.009 | inactive: 0.04 | inactive: 0.022 | inactive: -0.046 | inactive: 0.07
ARHGAP4 isoform 2 (UniProt P98171) | inactive: 0.197 | inactive: -0.079 | inactive: 0.021 | inactive: -0.036 | inactive: 0.081 |  | inactive: 0.047 | inactive: -0.043 |  | inactive: -0.097

A stretch from further up, as a working copy:
Target | log2 fold change [1] | log2 fold change [2] | log2 fold change [3] | log2 fold change [4] | log2 fold change (entinostat) | log2 fold change (vorinostat) | log2 fold change (citarinostat) | log2 fold change (silmitasertib) | log2 fold change [5] | log2 fold change [6]
ARFIP1 (UniProt P53367) | inactive: 0.116 | inactive: -0.002 | inactive: -0.162 | inactive: 0.062 | inactive: 0.079 | inactive: 0.031 | inactive: 0.121 | inactive: -0.011 | inactive: -0.042 | inactive: -0.048
AP2S1 (UniProt P53680) | active: -0.386 | inactive: 0.102 | inactive: -0.009 | inactive: -0.039 | inactive: -0.066 | inactive: 0.108 | inactive: -0.077 | inactive: 0.011 | active: -0.314 | inactive: -0.217
